40 targets from the supplement of paper PMC12819154, “High-throughput peptide-centric local stability assay extends protein–ligand identification to membrane proteins, tissues and bacteria” (Nature Structural & Molecular Biology, 2025) can be followed below.

Protein sequences, listed by entry. Tags and fused reporters are not part of them. Lines headed by an entry give the natural chain unless they say otherwise; changes in a name come on top.
UniProt P52106: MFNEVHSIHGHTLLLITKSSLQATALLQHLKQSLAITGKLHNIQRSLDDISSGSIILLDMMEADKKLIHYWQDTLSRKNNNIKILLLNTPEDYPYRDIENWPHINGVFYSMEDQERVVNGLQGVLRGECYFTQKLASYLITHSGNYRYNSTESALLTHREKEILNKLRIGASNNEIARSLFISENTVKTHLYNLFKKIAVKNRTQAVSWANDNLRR
UniProt P41052: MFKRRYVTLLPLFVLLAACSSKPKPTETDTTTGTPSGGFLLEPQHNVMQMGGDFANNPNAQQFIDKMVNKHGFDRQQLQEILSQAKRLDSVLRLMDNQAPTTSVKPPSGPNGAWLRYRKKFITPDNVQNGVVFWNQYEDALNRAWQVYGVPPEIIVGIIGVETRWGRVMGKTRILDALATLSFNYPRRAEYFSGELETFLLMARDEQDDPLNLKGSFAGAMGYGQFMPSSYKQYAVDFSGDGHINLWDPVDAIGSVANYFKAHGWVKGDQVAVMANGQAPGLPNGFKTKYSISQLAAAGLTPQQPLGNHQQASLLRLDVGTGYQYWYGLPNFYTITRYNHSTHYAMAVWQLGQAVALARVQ
UniProt P45475: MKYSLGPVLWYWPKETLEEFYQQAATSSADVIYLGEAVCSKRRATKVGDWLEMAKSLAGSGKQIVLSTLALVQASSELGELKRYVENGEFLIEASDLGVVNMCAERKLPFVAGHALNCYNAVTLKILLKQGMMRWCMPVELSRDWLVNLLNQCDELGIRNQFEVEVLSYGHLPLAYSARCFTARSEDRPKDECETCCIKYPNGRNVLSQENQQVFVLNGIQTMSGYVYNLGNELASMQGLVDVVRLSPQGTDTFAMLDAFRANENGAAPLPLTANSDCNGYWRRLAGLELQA
UniProt P45552: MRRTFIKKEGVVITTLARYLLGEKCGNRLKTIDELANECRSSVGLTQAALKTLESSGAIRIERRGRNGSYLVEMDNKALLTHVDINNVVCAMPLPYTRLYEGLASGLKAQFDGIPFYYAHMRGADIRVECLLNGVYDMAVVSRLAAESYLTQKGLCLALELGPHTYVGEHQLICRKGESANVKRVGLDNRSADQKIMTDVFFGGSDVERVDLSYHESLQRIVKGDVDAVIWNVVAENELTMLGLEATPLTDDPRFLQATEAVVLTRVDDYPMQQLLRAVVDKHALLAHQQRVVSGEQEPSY
UniProt P40711: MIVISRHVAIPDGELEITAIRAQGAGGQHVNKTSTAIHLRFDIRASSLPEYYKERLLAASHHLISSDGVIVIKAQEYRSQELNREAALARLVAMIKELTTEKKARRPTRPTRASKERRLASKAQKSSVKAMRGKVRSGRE
UniProt P39453: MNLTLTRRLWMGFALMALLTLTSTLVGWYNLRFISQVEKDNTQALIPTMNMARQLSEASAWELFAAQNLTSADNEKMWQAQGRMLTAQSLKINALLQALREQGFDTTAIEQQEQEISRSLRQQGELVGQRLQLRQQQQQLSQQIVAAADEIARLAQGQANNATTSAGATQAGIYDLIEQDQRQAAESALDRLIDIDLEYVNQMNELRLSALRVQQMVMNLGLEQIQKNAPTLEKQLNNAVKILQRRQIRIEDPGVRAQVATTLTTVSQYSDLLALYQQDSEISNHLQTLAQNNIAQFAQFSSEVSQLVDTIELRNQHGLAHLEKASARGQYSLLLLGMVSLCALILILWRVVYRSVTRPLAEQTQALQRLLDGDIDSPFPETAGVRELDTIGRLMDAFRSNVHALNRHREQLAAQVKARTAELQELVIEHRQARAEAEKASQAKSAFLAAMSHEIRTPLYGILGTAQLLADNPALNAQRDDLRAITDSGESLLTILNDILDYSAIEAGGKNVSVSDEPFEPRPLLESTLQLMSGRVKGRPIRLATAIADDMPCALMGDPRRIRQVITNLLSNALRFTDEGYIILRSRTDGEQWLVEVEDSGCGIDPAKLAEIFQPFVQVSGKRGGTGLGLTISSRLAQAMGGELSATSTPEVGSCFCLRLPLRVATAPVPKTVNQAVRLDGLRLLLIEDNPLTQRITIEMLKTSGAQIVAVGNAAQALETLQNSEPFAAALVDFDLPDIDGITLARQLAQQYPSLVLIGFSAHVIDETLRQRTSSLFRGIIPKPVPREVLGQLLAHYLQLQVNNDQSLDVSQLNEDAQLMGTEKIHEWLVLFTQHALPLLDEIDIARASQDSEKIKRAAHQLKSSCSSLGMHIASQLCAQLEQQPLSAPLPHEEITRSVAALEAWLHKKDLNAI
UniProt P52095: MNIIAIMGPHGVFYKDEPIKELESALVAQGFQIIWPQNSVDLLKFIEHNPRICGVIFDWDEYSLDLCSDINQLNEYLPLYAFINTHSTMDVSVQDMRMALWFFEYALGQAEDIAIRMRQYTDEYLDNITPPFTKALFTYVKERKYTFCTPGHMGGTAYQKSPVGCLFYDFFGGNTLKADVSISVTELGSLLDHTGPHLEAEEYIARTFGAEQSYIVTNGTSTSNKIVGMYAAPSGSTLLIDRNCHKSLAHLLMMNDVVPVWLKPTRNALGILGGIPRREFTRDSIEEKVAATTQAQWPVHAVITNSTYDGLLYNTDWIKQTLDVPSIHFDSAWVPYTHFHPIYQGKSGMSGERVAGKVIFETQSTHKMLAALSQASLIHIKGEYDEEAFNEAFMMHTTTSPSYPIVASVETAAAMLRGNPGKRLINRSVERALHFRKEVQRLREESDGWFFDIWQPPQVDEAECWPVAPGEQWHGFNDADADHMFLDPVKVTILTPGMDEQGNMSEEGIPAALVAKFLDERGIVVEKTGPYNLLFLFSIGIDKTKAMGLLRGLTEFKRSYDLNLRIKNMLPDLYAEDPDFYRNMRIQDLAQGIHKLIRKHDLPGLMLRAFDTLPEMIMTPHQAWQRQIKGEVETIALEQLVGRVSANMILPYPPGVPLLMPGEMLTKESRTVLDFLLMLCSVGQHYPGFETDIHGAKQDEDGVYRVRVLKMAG
UniProt P39360: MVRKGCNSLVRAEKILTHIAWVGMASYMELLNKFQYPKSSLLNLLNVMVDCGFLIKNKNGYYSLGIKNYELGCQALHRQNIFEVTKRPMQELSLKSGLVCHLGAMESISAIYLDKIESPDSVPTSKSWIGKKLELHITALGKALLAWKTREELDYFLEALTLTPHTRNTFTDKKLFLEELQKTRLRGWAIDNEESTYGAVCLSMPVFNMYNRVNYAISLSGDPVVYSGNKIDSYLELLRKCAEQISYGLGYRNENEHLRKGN
UniProt P45804: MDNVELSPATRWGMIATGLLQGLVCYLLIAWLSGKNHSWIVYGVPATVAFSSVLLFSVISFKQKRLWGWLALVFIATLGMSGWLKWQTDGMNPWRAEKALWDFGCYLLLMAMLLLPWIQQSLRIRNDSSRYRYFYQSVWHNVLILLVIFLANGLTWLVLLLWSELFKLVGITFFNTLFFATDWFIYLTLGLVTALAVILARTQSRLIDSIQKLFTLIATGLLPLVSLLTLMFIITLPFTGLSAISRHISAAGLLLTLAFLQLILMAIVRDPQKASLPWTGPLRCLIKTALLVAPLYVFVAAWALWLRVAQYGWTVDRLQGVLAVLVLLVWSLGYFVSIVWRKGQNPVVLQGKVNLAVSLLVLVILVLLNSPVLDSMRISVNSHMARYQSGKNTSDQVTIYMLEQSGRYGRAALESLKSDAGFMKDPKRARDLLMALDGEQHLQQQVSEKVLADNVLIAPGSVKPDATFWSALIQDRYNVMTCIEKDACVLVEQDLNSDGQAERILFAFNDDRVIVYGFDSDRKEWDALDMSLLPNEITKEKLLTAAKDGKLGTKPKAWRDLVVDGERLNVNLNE
UniProt P42904: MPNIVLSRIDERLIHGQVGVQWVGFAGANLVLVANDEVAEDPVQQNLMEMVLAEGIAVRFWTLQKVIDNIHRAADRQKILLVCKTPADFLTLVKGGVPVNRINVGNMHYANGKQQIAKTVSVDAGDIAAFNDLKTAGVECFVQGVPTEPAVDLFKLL
UniProt P39451: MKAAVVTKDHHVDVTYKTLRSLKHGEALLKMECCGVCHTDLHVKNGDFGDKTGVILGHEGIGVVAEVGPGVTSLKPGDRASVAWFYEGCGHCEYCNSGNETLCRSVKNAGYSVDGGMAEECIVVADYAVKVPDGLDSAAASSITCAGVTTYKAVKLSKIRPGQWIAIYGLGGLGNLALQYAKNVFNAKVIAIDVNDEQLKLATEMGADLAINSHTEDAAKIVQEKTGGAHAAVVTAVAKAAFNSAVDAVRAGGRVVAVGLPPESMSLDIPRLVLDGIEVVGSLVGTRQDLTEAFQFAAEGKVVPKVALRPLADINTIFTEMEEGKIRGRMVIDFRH
UniProt P52132: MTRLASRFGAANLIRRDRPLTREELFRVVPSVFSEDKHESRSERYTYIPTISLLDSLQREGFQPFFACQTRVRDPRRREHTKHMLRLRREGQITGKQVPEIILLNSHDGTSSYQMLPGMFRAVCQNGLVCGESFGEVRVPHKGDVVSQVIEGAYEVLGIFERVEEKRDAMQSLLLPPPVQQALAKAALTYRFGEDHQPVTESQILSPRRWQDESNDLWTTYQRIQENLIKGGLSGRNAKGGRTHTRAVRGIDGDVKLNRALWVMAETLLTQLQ
UniProt P45771: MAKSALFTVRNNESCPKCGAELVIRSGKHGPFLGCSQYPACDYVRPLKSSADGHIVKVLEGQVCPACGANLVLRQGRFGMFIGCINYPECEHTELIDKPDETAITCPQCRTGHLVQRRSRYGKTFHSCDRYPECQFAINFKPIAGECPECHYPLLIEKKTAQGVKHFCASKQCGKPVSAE
UniProt P39385: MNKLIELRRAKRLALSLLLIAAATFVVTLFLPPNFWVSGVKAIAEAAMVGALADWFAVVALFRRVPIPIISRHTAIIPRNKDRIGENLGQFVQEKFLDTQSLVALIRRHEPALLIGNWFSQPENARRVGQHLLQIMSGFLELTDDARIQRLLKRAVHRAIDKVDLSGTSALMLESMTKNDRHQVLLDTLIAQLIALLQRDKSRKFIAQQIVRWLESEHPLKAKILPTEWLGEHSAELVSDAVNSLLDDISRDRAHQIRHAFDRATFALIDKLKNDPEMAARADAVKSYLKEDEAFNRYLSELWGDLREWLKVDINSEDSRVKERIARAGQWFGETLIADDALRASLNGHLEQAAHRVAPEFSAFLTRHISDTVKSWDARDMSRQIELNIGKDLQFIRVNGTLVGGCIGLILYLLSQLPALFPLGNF
UniProt P45464: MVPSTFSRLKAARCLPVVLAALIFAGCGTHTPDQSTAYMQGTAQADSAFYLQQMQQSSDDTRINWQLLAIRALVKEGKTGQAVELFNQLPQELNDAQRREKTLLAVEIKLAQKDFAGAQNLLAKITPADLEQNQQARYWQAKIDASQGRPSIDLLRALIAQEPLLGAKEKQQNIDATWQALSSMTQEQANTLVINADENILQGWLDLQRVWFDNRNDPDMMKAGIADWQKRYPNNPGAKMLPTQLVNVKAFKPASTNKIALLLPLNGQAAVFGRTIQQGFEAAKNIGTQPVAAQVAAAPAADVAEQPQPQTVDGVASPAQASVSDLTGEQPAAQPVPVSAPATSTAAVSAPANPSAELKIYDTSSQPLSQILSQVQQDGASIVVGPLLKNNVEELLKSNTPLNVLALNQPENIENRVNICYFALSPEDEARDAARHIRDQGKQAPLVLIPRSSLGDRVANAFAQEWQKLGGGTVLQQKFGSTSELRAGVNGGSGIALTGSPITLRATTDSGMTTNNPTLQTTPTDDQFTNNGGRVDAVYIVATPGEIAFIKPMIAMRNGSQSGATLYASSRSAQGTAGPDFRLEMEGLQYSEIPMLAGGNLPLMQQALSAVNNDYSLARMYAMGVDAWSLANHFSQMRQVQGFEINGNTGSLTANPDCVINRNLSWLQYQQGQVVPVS
UniProt P46883: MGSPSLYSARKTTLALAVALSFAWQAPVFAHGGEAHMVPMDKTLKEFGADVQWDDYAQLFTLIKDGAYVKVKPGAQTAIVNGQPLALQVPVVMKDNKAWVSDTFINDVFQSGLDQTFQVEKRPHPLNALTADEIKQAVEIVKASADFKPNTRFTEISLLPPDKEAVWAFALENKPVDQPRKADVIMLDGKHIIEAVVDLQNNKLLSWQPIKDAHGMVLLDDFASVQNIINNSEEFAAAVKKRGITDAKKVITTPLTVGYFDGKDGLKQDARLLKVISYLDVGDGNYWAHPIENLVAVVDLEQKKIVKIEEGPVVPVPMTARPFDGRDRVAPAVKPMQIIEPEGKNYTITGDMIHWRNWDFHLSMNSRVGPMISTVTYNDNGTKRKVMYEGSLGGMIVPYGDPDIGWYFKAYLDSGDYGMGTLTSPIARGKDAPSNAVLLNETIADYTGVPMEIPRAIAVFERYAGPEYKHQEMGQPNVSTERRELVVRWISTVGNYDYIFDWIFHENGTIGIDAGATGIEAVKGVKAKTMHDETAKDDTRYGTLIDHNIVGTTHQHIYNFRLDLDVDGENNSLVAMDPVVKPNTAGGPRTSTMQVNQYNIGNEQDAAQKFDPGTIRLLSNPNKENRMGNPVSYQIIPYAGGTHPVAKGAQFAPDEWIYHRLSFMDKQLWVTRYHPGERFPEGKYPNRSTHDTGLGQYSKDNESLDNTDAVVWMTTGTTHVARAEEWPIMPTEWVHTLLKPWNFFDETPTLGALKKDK

The list shows a part of the results, in another mix than the full data. Most entries show no effect beyond the scatter of the controls.
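Note: lysate desalted by size exclusion to strip endogenous ATP, peptide intensities built from DIA-NN precursor signals, and peptides missing any value discarded before comparison.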

Compound in the assay: Nc1ncnc2c1ncn2[C@@H]1O[C@H](COP(=O)(O)OP(=O)(O)OP(=O)(O)O)[C@@H](O)[C@H]1O [adenosine 5'-triphosphate]
Description: log2 fold change of tryptic peptide abundance, ligand vs vehicle (limited proteolysis) (log2 ratio); higher = more trypsin-susceptible (destabilized). The note with it: ligand concentration: 5 mM; sample: E. coli desalted lysate; replicate design: treated before aliquoting. Here is the method:
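HT-PELSA: desalted E. coli K-12 BW25113 lysate (with 12 mM MgCl2) incubated with 5 mM ATP (pH 7) or water for 30 min at 25 C, then a 4 min trypsin pulse at 22 C. Peptides were quantified by DIA-MS (4 replicates). Value is the peptide log2 fold change (treated/control); negative = stabilized. Scale: negative = ligand-stabilized region.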
For the target “UniProt P52106 (peptide sequence: IGASNNEIAR, peptide start residue: 169)”, the log2 fold change was -0.51. To “UniProt P45563 (peptide sequence: TYKPDFTPR, peptide start residue: 19)” belongs 0.521; to “UniProt P41052 (peptide sequence: QQLQEILSQAK, peptide start residue: 76)”, 0.194; to “UniProt P46853 (peptide sequence: GLTVTPYQNR, peptide start residue: 116)”, 0.385. Under “UniProt P42616 (peptide sequence: ANCSDSQLR, peptide start residue: 59)” stands -0.125; under “UniProt P39396 (peptide sequence: TDKETPYVPIPEGGVK, peptide start residue: 696)”, -0.163. Consider “UniProt P45475 (peptide sequence: VGDWLEMAK, peptide start residue: 47)”, for which the log2 fold change came out at 0.406. To “UniProt P42604 (peptide sequence: IATNSELAAK, peptide start residue: 429)” belongs 0.496; to “UniProt P45394 (peptide sequence: QGTDSLTR, peptide start residue: 153)”, 0.163; to “UniProt P56262 (peptide sequence: AAVAWYGK, peptide start residue: 165)”, 0.278. Under “UniProt P42909 (peptide sequence: DVNVGNMHFSEGKK, peptide start residue: 104)” stands 0.503. Under “UniProt P45552 (peptide sequence: AVVDKHALLAHQQR, peptide start residue: 278)” stands -0.221.

For “UniProt P39356 (peptide sequence: IFLAGGER, peptide start residue: 287)”, the log2 fold change was -0.234. “UniProt P46888 (peptide sequence: AVSIARPVK, peptide start residue: 23)”: the log2 fold change turned out to be 0.208. To “UniProt P46855 (peptide sequence: LGGDAIK, peptide start residue: 203)” belongs -0.0419. Under “UniProt P40711 (peptide sequence: AQGAGGQHVNK, peptide start residue: 22)” stands -0.223; under “UniProt P52126 (peptide sequence: SGDIDHQDER, peptide start residue: 220)”, -0.551; under “UniProt P46474 (peptide sequence: TRGDSTPSSPFPTTER, peptide start residue: 971)”, 0.616.

Regarding “UniProt P39453 (peptide sequence: SNVHALNR, peptide start residue: 400)”, the log2 fold change was determined as 0.418. Under “UniProt P52076 (peptide sequence: IATLAGEPLTLKPK, peptide start residue: 140)” stands 0.654; under “UniProt P52095 (peptide sequence: VIFETQSTHK, peptide start residue: 358)”, -0.223; under “UniProt P39360 (peptide sequence: KCAEQISYGLGYRNENEHLR, peptide start residue: 240)”, -0.744. To “UniProt P45804 (peptide sequence: DLVVDGER, peptide start residue: 560)” belongs 0.0315; to “UniProt P64588 (peptide sequence: FFGHGELR, peptide start residue: 57)”, -0.27.

For “UniProt P39363 (peptide sequence: ISQFIDSPQR, peptide start residue: 115)”, the log2 fold change worked out at 0.167. Consider “UniProt P42904 (peptide sequence: TPADFLTLVK, peptide start residue: 85)”, for which the log2 fold change is 0.239. Under “UniProt P39451 (peptide sequence: DHHVDVTYK, peptide start residue: 9)” stands -0.453; under “UniProt P52132 (peptide sequence: FGAANLIR, peptide start residue: 8)”, 0.523. As to “UniProt P63235 (peptide sequence: NLLPAAFAK, peptide start residue: 323)”, the log2 fold change is -0.634.

In the case of “UniProt P45771 (peptide sequence: SSADGHIVK, peptide start residue: 49)”, the log2 fold change turned out to be 0.287. “UniProt P45470 (peptide sequence: GEASVTIDK, peptide start residue: 48)”: the log2 fold change is -0.321.

With “UniProt P45758 (peptide sequence: YTSTERAK, peptide start residue: 575)”, the log2 fold change was determined as 0.146.

Consider “UniProt P39385 (peptide sequence: ASLNGHLEQAAHR, peptide start residue: 344)”, for which the log2 fold change was -0.476. For the target “UniProt P39377 (peptide sequence: AVQAGIPLAR, peptide start residue: 270)”, the log2 fold change was -0.498. As for “UniProt P46187 (peptide sequence: ASCSSCASR, peptide start residue: 24)”, the log2 fold change is -0.534.

Turning to “UniProt P42590 (peptide sequence: HIEATPASNVD, peptide start residue: 467)”, the log2 fold change was found to be 0.0519. To “UniProt P45464 (peptide sequence: AFKPASTNK, peptide start residue: 250)” belongs -0.649. Under “UniProt P52127 (peptide sequence: ILENVHIVR, peptide start residue: 376)” stands 1.04; under “UniProt P46883 (peptide sequence: HQEMGQPNVSTERR, peptide start residue: 470)”, -0.577; under “UniProt P39346 (peptide sequence: FAGDKTQAAK, peptide start residue: 329)”, -0.339.
